In PubChem BioAssay AID504444 (National Center for Advancing Translational Sciences (NCATS), 2011):
Screen size: about 360,000 compounds; about 7,500 (2.1%) were called active. Inconclusive means that the source gave no clear call. Such entries were picked first, then a sample of the others. Calls follow the shape of the dose curve; as a rule, active = well fitted inhibition curve with a large enough effect; inconclusive = small, poorly fitted or top-dose-only effect, or effect the other way; inactive = flat fitted curve, though single readings scatter. Potencies beside an inconclusive call are fits to weak or partial responses and may not hold up.

Assay: Nrf2 qHTS screen for inhibitors; also: nearly all actives have a fitted effect of over 60% in size
Settings: A549 ARE-Fluc reporter, luciferase luminescence, 18-24 h; series mostly up to 46 µM
Procedure, shortened: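 Quantitative HTS in A549 cells stably bearing an antioxidant response element-firefly luciferase construct. Inhibition of Nrf2-driven transcription was scored by luminescence after 18-24 h of compound exposure at 37 °C.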
Potency is read from the fitted curve at half-maximal effect.

Structure (SMILES)	Potency
COc1cc(C(=O)Nc2cccc(C)c2C)ccc1OCC(=O)N1CCOCC1	inactive
O=C(CC1(O)C(=O)N(CN2CCOCC2)c2ccccc21)c1ccccc1 (stereo not given)	inconclusive: 29.1 µM [activator, single point]
COc1cc(CN(CC2CCCO2)C(=O)c2ccccc2F)cc(OC)c1OC (stereo not given)	inactive
CCn1c(=O)cc(OCC(=O)N2CCN(c3cccc(C(F)(F)F)c3)CC2)c2ccccc21	inconclusive: 18.4 µM [falling, single point]
CCCCOC(=O)c1nnc(-c2ccccc2)o1	inconclusive: 25.9 µM [activator, single point]
C=CCOC(=O)C1=C(C)NC(SC)=C(C#N)C1c1cccs1 (stereo not given)	inconclusive: 32.6 µM [falling, single point]
COCCCn1c(=N)c(C(N)=S)cc2c(=O)n3cccc(C)c3nc21	inactive
Cc1nn(-c2ccccc2)c(Cl)c1C(=O)N1CCN(c2ncnc3c2cnn3-c2ccccc2)CC1	active: 20.6 µM
Cc1ccc(NC(=O)CCS(=O)(=O)c2ccc3c(c2)NC(=O)C(C)S3)cc1Cl (stereo not given)	inconclusive: 23.1 µM [falling, single point]
COc1cc(OC)c(OC)cc1CNC(=O)c1ccc(COc2ccccc2)cc1	active: 16.4 µM
COc1ccc(SCCCn2c(=O)c3c(ncn3C)n(C)c2=O)cc1	inconclusive: 4.11 µM [falling, partial curve]
COc1ccccc1C(=O)Nc1ccc(S(=O)(=O)Nc2cc(C)nc(C)n2)cc1	inconclusive: 11.6 µM [falling, single point]
CN(C(=O)COC(=O)c1ccccc1Nc1ccccc1)c1c(N)n(Cc2ccccc2)c(=O)[nH]c1=O	inconclusive: 20.6 µM [falling, single point]
O=C(NC(=S)Nc1cccc(C(F)(F)F)c1)c1ccc2nonc2c1	inconclusive: 32.6 µM [falling, single point]
O=C(NC1CC1)c1ccc(-c2nc3ccccc3s2)s1	inconclusive: 13 µM [falling, partial curve, poor fit]
COCCNC(=O)C1=C(N)C(C(=O)Nc2ccc(C)c(S(=O)(=O)N3CCCCC3)c2)SC1=Nc1ccc(C)cc1C (stereo not given)	inconclusive: 9.2 µM [falling, partial curve, poor fit]
CC(=O)c1ccc(S(=O)(=O)N2CCN(C(=O)/C=C/c3ccc4ccccc4n3)CC2)cc1	inconclusive: 16.4 µM [falling, single point]
CCc1ccc2nc(NC(=O)CN3C(=O)NC4(CCCC4)C3=O)sc2c1	inconclusive: 5.17 µM [activator, full curve]
COc1ccccc1NC(=O)CSc1nnnn1-c1ccc2c(c1)OCO2	inconclusive: 13 µM [falling, partial curve]
O=S(=O)(c1ccccc1)c1nc(Nc2ccccc2N2CCOCC2)sc1Cl	inconclusive: 20.6 µM [falling, single point]
Cc1ccc(N2C(=O)C3C4C=CC(CNC(=S)Nc5cccc(Cl)c5)(O4)C3C2=O)cc1 (stereo not given)	inactive
CCCc1cc(=O)n2[nH]c(-c3cccc(Br)c3)cc2n1	inconclusive: 2.06 µM [activator, full curve]

Structure (SMILES)	Potency
O=[N+]([O-])c1ccc(NN=Cc2ccc(O)cc2)nc1	inconclusive: 23.1 µM [activator, single point]
Oc1ccc2ccccc2c1CNc1ccc(Br)cn1	inactive
O=S1(=O)N=C(N/N=C/c2cccs2)c2ccccc21	inconclusive: 29.1 µM [falling, single point]
Cc1n[nH]c(C)c1CCc1nc2c3ccccc3nc(SCC(=O)Nc3ccccc3F)n2n1	inconclusive: 13 µM [falling, partial curve]
CC(=O)c1c(C)[nH]c(C(=O)OCC(=O)Nc2cccc(S(=O)(=O)N(C)C)c2)c1C	inconclusive: 29.1 µM [falling, single point]
COc1ccc(S(=O)(=O)N/N=C\c2ccc3c(c2)OCO3)c(OC)c1	active: 10.3 µM
O=C(O)c1ccccc1-c1ncc(-c2ccccc2)o1	inconclusive: 20.6 µM [activator, single point]
COc1ccc(OC)c(-c2nc(C(=O)NCC3CCCO3)cc3c2[nH]c2ccccc23)c1 (stereo not given)	inconclusive: 32.6 µM [falling, single point]
CCN(CC)C(=O)CC(c1ccc(N(C)C)cc1)c1c(OC)cc(OC)c2c(-c3ccccc3)cc(=O)oc12 (stereo not given)	inconclusive: 29.1 µM [falling, single point]
CC1CCCCN1C(=O)Nc1cccc(C(F)(F)F)c1 (stereo not given)	inconclusive: 5.17 µM [falling, partial curve, poor fit]
COc1cc(/C=C/CNC[C@H]2O[C@@H](n3ccc(=O)[nH]c3=O)[C@H](O)[C@@H]2O)ccc1O	inactive
O=C1C=C(c2ccc(F)cc2OCc2ccccc2)C[C@@H](c2ccc(F)cc2)C1	inconclusive: 16.4 µM [falling, single point]
Cc1ccn2cc(CSc3ccccc3N)nc2c1	inconclusive: 3.26 µM [activator, partial curve, poor fit]
COC(=O)C(NC(=O)c1ccc(F)cc1)(Nc1ncc(S(=O)(=O)c2ccc([N+](=O)[O-])cc2)s1)C(F)(F)F (stereo not given)	inconclusive: 18.4 µM [falling, partial curve, poor fit]
CCOc1ccc(NC(=O)Nc2cc(OCC(F)(F)F)cc(OCC(F)(F)F)c2)cc1	inconclusive: 25.9 µM [activator, single point]
Cc1ccc(N2CCn3c2nc2c3c(=O)n(CCc3ccccc3)c(=O)n2C)cc1C	inactive
N#Cc1ccc(-c2cccs2)nc1SCc1ccc(Cl)cc1Cl	inactive
CCCc1cc(=O)[nH]c(NCc2ccc(Cl)cc2)n1	inactive
CN(CCOc1ccc(Cl)cc1)C(=O)c1ccccc1SCC(=O)N1CCCC1	active: 13 µM
CC(=O)c1cccc(NC(=O)CCCCCn2nnc3ccccc3c2=O)c1	inconclusive: 25.9 µM [falling, single point]
NC(=S)n1[nH]c(-c2ccc([N+](=O)[O-])cc2)c(N=Nc2cccc(Cl)c2)c1=O	active: 18.4 µM
Cc1ccnc(NC(c2ccccc2F)c2ccc3cccnc3c2O)c1 (stereo not given)	inconclusive: 32.6 µM [falling, partial curve, poor fit]

Reformatted with each value named: three of the compounds above
CCCCOC(=O)c1nnc(-c2ccccc2)o1
  Potency: inconclusive: 25.9 µM [activator, single point]
C=CCOC(=O)C1=C(C)NC(SC)=C(C#N)C1c1cccs1 (stereo not given)
  Potency: inconclusive: 32.6 µM [falling, single point]
COCCCn1c(=N)c(C(N)=S)cc2c(=O)n3cccc(C)c3nc21
  Potency: inactive

(cont.)

Structure (SMILES)	Potency
CCOC(=O)Cc1csc(NC(=O)c2ccc(NC(C)=O)cc2)n1	inconclusive: 1.64 µM [activator, partial curve, poor fit]
CCOC(=O)CN1CCc2c(C)nc3c(-c4ccc(OC)c(OC)c4)cnn3c21	inactive
O=C(/C=C/c1cccc(C(F)(F)F)c1)N1CCN(c2ccccn2)CC1	active: 23.1 µM
COc1cccc(C2=CC(=O)C[C@H](c3ccc4c(c3)OCO4)C2)c1OC	inconclusive: 25.9 µM [activator, single point]
COc1ccc(OCCCC(=O)NCCc2ccccc2)cc1	inconclusive: 14.6 µM [falling, partial curve]
N#CC(C(=O)Nc1ccc(Cl)c(Cl)c1)=C1Nc2ccccc2N1	inconclusive: 7.94 µM [falling, partial curve]
COc1ccc(NC(=O)c2cc(C(C)C)on2)cc1OC	inactive
CN(CC(=O)NCc1ccccn1)S(=O)(=O)c1ccc2ccccc2c1	inconclusive: 8.2 µM [activator, partial curve, poor fit]
CC(C)NC(=O)COC(=O)c1cc(F)c(F)cc1Cl	inconclusive: 14.6 µM [activator, partial curve]
CCCCCc1ccc(S(=O)(=O)NCCc2ccncc2)cc1	inconclusive: 18.4 µM [falling, single point]
CCOc1ccc2oc(C(=O)NC(C)(C)CC)c(C)c2c1	inconclusive: 20.6 µM [activator, single point]
O=C(NCCOc1cccc2cccnc12)c1cccs1	inconclusive: 32.6 µM [falling, partial curve, poor fit]
O=C(c1cc(-c2cccs2)on1)N1CCCCC1	inconclusive: 5.17 µM [activator, partial curve]
Cn1cc(/C=N/n2cnc3scc(-c4ccccc4)c3c2=O)c2ccccc21	inconclusive: 5.8 µM [falling, full curve]
CCOc1cc(C(=O)NCCCNC(=O)c2cc(OCC)c(OCC)c(OCC)c2)cc(OCC)c1OCC	inconclusive: 9.2 µM [falling, partial curve, poor fit]
COc1ccccc1NC(=O)Nc1nc(CC(=O)Nc2cccc(F)c2)cs1	inconclusive: 29.1 µM [falling, single point]
Cc1ccccc1NC(=O)CSc1nc2c(oc3ccccc32)c(=O)n1-c1ccccc1F	inactive
CCN1CCN(CCCNC(=O)c2cc3c(=O)oc4ccc(C)cc4c3s2)CC1	inconclusive: 6.51 µM [activator, full curve, poor fit]
CC1(c2nnc(-c3ccncc3)o2)CC(c2ccc(Cl)cc2)=NO1 (stereo not given)	inconclusive: 20.6 µM [falling, single point]
C[C@@H]1CN([C@H](C)CO)C(=O)c2cccc(NC(=O)Nc3ccc(F)cc3)c2O[C@H]1CN(C)C(=O)Nc1ccc(C(F)(F)F)cc1	inconclusive: 23.1 µM [falling, single point]
CC1CCN(C(=O)c2cc(-c3ccc(Cl)cc3)on2)CC1	inconclusive: 2.06 µM [activator, full curve]

A few values from the entries so far.
CC1CCN(C(=O)c2cc(-c3ccc(Cl)cc3)on2)CC1 – Potency: inconclusive: 2.06 µM [activator, full curve]
O=S1(=O)N=C(N/N=C/c2cccs2)c2ccccc21 – Potency: inconclusive: 29.1 µM [falling, single point]
